PubChem BioAssay AID720705 | Peter MacCallum Cancer Centre, 2013
This is a random part of 200 reagents tested. 116 of all reagents (58%) count as active. 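Negative fold changes mean less ERK phosphorylation; hits count in both directions; calls are per gene.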 Reagents against one gene are numbered here.

- Purpose: 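Follow-up of 50 kinase hits using four independent siRNAs per gene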 (follow-up of hits)
- Cell system: human HMEC-LST-AT1R mammary epithelial cells
- Reagents: single siRNA against human genes, 25 nM per duplex
- Duration: 72 h after transfection
- Treatment: angiotensin II stimulation; dose and duration not given
- Measurement: 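ERK1/2 phosphorylation after angiotensin II, read by AlphaScreen SureFire per well, as signed fold change against averaged mock and GFP siRNA wells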
- Reading the numbers: duplexes agreeing on an effect (of 4): higher = more duplexes of this gene agree on an effect; signed phospho-ERK fold change vs controls: higher = more ERK phosphorylation than controls; negative values are decreases
- Active means: 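Gene called active when two or more of its four siRNAs each shift ERK phosphorylation beyond 1.5-fold the same way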
- Meaning of the calls: active = high/medium confidence (2-4 of 4 duplexes); inactive = low confidence (0-1 of 4 duplexes)

SNRK #1 | duplexes agreeing on an effect (of 4): 2; signed phospho-ERK fold change vs controls: -1.91; outcome: active
SNRK #2 | duplexes agreeing on an effect (of 4): 2; signed phospho-ERK fold change vs controls: -0.039; outcome: active
SNRK #3 | duplexes agreeing on an effect (of 4): 2; signed phospho-ERK fold change vs controls: -2.17; outcome: active
SNRK #4 | duplexes agreeing on an effect (of 4): 2; signed phospho-ERK fold change vs controls: 1.28; outcome: active
MAPK1 #1 | duplexes agreeing on an effect (of 4): 2; signed phospho-ERK fold change vs controls: -1.08; outcome: active
MAPK1 #2 | duplexes agreeing on an effect (of 4): 2; signed phospho-ERK fold change vs controls: -1.77; outcome: active
MAPK1 #3 | duplexes agreeing on an effect (of 4): 2; signed phospho-ERK fold change vs controls: 1.28; outcome: active
MAPK1 #4 | duplexes agreeing on an effect (of 4): 2; signed phospho-ERK fold change vs controls: -1.61; outcome: active
PI4KA #1 | duplexes agreeing on an effect (of 4): 2; signed phospho-ERK fold change vs controls: 1.76; outcome: active
PI4KA #2 | duplexes agreeing on an effect (of 4): 2; signed phospho-ERK fold change vs controls: -2.2; outcome: active
PI4KA #3 | duplexes agreeing on an effect (of 4): 2; signed phospho-ERK fold change vs controls: -1.82; outcome: active
PI4KA #4 | duplexes agreeing on an effect (of 4): 2; signed phospho-ERK fold change vs controls: 1.27; outcome: active
PRKG1 #1 | duplexes agreeing on an effect (of 4): 1; signed phospho-ERK fold change vs controls: -1.31; outcome: inactive
PRKG1 #2 | duplexes agreeing on an effect (of 4): 1; signed phospho-ERK fold change vs controls: -1.21; outcome: inactive
PRKG1 #3 | duplexes agreeing on an effect (of 4): 1; signed phospho-ERK fold change vs controls: -1.74; outcome: inactive
PRKG1 #4 | duplexes agreeing on an effect (of 4): 1; signed phospho-ERK fold change vs controls: 1.34; outcome: inactive
EGFR #1 | duplexes agreeing on an effect (of 4): 3; signed phospho-ERK fold change vs controls: -3.71; outcome: active
EGFR #2 | duplexes agreeing on an effect (of 4): 3; signed phospho-ERK fold change vs controls: -1.46; outcome: active
EGFR #3 | duplexes agreeing on an effect (of 4): 3; signed phospho-ERK fold change vs controls: -1.56; outcome: active
EGFR #4 | duplexes agreeing on an effect (of 4): 3; signed phospho-ERK fold change vs controls: -1.56; outcome: active
PIK3CA #1 | duplexes agreeing on an effect (of 4): 2; signed phospho-ERK fold change vs controls: -1.52; outcome: active
PIK3CA #2 | duplexes agreeing on an effect (of 4): 2; signed phospho-ERK fold change vs controls: -1.77; outcome: active
PIK3CA #3 | duplexes agreeing on an effect (of 4): 2; signed phospho-ERK fold change vs controls: 2.27; outcome: active
PIK3CA #4 | duplexes agreeing on an effect (of 4): 2; signed phospho-ERK fold change vs controls: 1.6; outcome: active
PRKCD #1 | duplexes agreeing on an effect (of 4): 2; signed phospho-ERK fold change vs controls: 1.08; outcome: active
PRKCD #2 | duplexes agreeing on an effect (of 4): 2; signed phospho-ERK fold change vs controls: 0.03; outcome: active
PRKCD #3 | duplexes agreeing on an effect (of 4): 2; signed phospho-ERK fold change vs controls: -2; outcome: active
PRKCD #4 | duplexes agreeing on an effect (of 4): 2; signed phospho-ERK fold change vs controls: -2.49; outcome: active
FN3KRP #1 | duplexes agreeing on an effect (of 4): 4; signed phospho-ERK fold change vs controls: -2.93; outcome: active
FN3KRP #2 | duplexes agreeing on an effect (of 4): 4; signed phospho-ERK fold change vs controls: -1.57; outcome: active
FN3KRP #3 | duplexes agreeing on an effect (of 4): 4; signed phospho-ERK fold change vs controls: -2.42; outcome: active
FN3KRP #4 | duplexes agreeing on an effect (of 4): 4; signed phospho-ERK fold change vs controls: -3.94; outcome: active
MELK #1 | duplexes agreeing on an effect (of 4): 1; signed phospho-ERK fold change vs controls: -1.29; outcome: inactive
MELK #2 | duplexes agreeing on an effect (of 4): 1; signed phospho-ERK fold change vs controls: 1.13; outcome: inactive
MELK #3 | duplexes agreeing on an effect (of 4): 1; signed phospho-ERK fold change vs controls: -1.36; outcome: inactive
MELK #4 | duplexes agreeing on an effect (of 4): 1; signed phospho-ERK fold change vs controls: -1.62; outcome: inactive
PLK3 #1 | duplexes agreeing on an effect (of 4): 1; signed phospho-ERK fold change vs controls: -1.12; outcome: inactive
PLK3 #2 | duplexes agreeing on an effect (of 4): 1; signed phospho-ERK fold change vs controls: -1.04; outcome: inactive
PLK3 #3 | duplexes agreeing on an effect (of 4): 1; signed phospho-ERK fold change vs controls: 1.22; outcome: inactive
PLK3 #4 | duplexes agreeing on an effect (of 4): 1; signed phospho-ERK fold change vs controls: -2.13; outcome: inactive
EPHB3 #1 | duplexes agreeing on an effect (of 4): 1; signed phospho-ERK fold change vs controls: 0.026; outcome: inactive
EPHB3 #2 | duplexes agreeing on an effect (of 4): 1; signed phospho-ERK fold change vs controls: -1.25; outcome: inactive
EPHB3 #3 | duplexes agreeing on an effect (of 4): 1; signed phospho-ERK fold change vs controls: -2.54; outcome: inactive
EPHB3 #4 | duplexes agreeing on an effect (of 4): 1; signed phospho-ERK fold change vs controls: 1.22; outcome: inactive
AKT1 #1 | duplexes agreeing on an effect (of 4): 3; signed phospho-ERK fold change vs controls: -2.05; outcome: active
AKT1 #2 | duplexes agreeing on an effect (of 4): 3; signed phospho-ERK fold change vs controls: -1.54; outcome: active
AKT1 #3 | duplexes agreeing on an effect (of 4): 3; signed phospho-ERK fold change vs controls: -2.33; outcome: active
AKT1 #4 | duplexes agreeing on an effect (of 4): 3; signed phospho-ERK fold change vs controls: -1.41; outcome: active

In a second layout: 8 of the entries above.
Gene,reagent,duplexes agreeing on an effect (of 4),signed phospho-ERK fold change vs controls,outcome
MELK,3,1,-1.36,inactive
MELK,4,1,-1.62,inactive
PLK3,1,1,-1.12,inactive
PLK3,2,1,-1.04,inactive
PLK3,3,1,1.22,inactive
PLK3,4,1,-2.13,inactive
EPHB3,1,1,0.026,inactive
EPHB3,2,1,-1.25,inactive
